This is one part of the list.
What follows are sequences tested against T1, OsSMF1 (Oryza sativa, UniProt Q6ZLB0 1-436) (assay: protein-binding microarray (RPBM); PBS, 2% BSA, 51.3 ng/ul salmon testes DNA, 50 uM zinc acetate, 200 nM TF, 25 C, 1 h; high values mean tight binding). Details: protein: recombinant; tags: N-terminal polyhistidine and DsRed monomer fusion (pET32a); chain copies: 2; label: CyDye5-dUTP incorporated in the synthesized complementary strand; 3' TTTTT single-stranded linker to array surface; dsDNA, one strand shown.
T1 sequence: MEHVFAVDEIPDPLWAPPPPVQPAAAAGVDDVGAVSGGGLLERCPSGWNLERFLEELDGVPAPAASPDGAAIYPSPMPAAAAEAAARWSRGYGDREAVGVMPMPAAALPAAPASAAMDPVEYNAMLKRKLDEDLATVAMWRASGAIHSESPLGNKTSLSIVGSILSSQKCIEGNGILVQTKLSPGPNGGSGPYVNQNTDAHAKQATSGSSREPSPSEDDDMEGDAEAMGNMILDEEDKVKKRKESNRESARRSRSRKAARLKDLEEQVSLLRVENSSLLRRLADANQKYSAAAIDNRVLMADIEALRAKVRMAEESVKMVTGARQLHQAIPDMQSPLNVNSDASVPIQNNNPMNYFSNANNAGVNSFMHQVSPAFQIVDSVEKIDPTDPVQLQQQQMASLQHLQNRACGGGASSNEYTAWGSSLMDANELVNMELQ
Outline: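 The binding signal for each feature is its fluorescence intensity in arbitrary units. An Axon 4000B scanner was used to read a custom Agilent array that had been made double-stranded with Cy5-dUTP primer extension, blocked with 2% BSA, incubated at 25 °C for 1 h with 200 nM protein in PBS, 2% BSA, salmon testes DNA and 50 µM zinc acetate, and washed. The protein was an N-terminal polyhistidine–DsRed transcription factor fusion from E. coli BL21-CodonPlus, purified on Ni–NTA.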
“TACGTTCTATGAATCTGTCACAAGTCATGACGCCGCGAGCCGGAGTCACCTAGTGCAG” was tested, and the binding signal was 30100 fluorescence intensity (a.u.). For “TAATCCAGTACTACTTGCTGTGACAGTGTGATGTGCTTGTCGGAGTCACCTAGTGCAG”, the binding signal was 3540 fluorescence intensity (a.u.). “ATGCCAAAGTGTTTTCCACGTAATATTACATAGTTTATAACGGAGTCACCTAGTGCAG” was tested, and the binding signal was 4470 fluorescence intensity (a.u.). “TCTCAAGATGATCATGATGATGTTATCACATATCTCCTATCGGAGTCACCTAGTGCAG” was tested, and the binding signal was 3200 fluorescence intensity (a.u.). For “ATTTTGAAGCACAACTATATTGACTCACTTGGAAAGGTAGCGGAGTCACCTAGTGCAG”, the binding signal was 3780 fluorescence intensity (a.u.). “GAGAGGGTTTTGGCCAGCCGGATGGCTTAGCCATCCGGTTCGGAGTCACCTAGTGCAG” was tested, and the binding signal was 24800 fluorescence intensity (a.u.). “CCCGGCAAGCCATGGAGCTGACGCTGCTGGTGTTCGTCCTCGGAGTCACCTAGTGCAG” was tested, and the binding signal was 4520 fluorescence intensity (a.u.). For “CTCGTCCTGAATCGCCACGTGGCATCAGTCCCAGCCGTTGCGGAGTCACCTAGTGCAG”, the binding signal was 36300 fluorescence intensity (a.u.). “ACAGGGTTGCCAAGCTCTTACTCAACCTAAACCACCAGAACGGAGTCACCTAGTGCAG” was tested, and the binding signal was 3200 fluorescence intensity (a.u.). “GGCGAGCGGCGCGAAGCTCGCCAGCGTGGCGCCGAGGGAGCGGAGTCACCTAGTGCAG” was tested, and the binding signal was 3700 fluorescence intensity (a.u.). With “CCAGTCTAACCAGGCTGAACTGCCACGCTCACACCCTTCTCGGAGTCACCTAGTGCAG” the binding signal was 3570 fluorescence intensity (a.u.). In the case of “GGCGGCAGCAAGAGGGGTCCGCCCTCTGCGGCGCTGGCAACGGAGTCACCTAGTGCAG”, the binding signal is reported as 3270 fluorescence intensity (a.u.). In the case of “ACGTCTTGGCGTCTTGGCCTCATGGGCACCTGACGTGAGACGGAGTCACCTAGTGCAG”, the binding signal is reported as 3720 fluorescence intensity (a.u.). “TGGCTAAGTTTGGTAAGAATTTGAGTCTATAACGTGTAGGCGGAGTCACCTAGTGCAG” was tested, and the binding signal was 3640 fluorescence intensity (a.u.). For “GAGACGGGCCCGTCACTAACCCATCCCGCATATGGCCCAGCGGAGTCACCTAGTGCAG”, the binding signal was 3270 fluorescence intensity (a.u.). For “ATGGGTGGAGGAGTGGGAGGGGATTAAATATCGGCGGAGGCGGAGTCACCTAGTGCAG”, the binding signal was 3330 fluorescence intensity (a.u.). In the case of “TTCATTAAATGGTGTTTATGTGAATGTAGAAAGATGATTGCGGAGTCACCTAGTGCAG”, the binding signal is reported as 3470 fluorescence intensity (a.u.). In the case of “CAACTGATCATCTTGGTGGTTGGCAATGGTCATAGGATGACGGAGTCACCTAGTGCAG”, the binding signal is reported as 3200 fluorescence intensity (a.u.). In the case of “TATGCGTGGGTCACTGGGCCCACACGTCATCCTCACGTGGCGGAGTCACCTAGTGCAG”, the binding signal is reported as 49000 fluorescence intensity (a.u.). “GCCACGCCTAAGGTTAGGCAAATTTGACAGGTGTTTGGTTCGGAGTCACCTAGTGCAG” was tested, and the binding signal was 3690 fluorescence intensity (a.u.). “ATCCCAGCGCTTTACAGTAGGCGCAGCTGCCACGCGTCGCCGGAGTCACCTAGTGCAG” was tested, and the binding signal was 6380 fluorescence intensity (a.u.). With “CTTCTTCTTCTTCCTGAGGTGGGTCAGGGTGGGCGTGGATCGGAGTCACCTAGTGCAG” the binding signal was 3620 fluorescence intensity (a.u.). With “AGATAATGTTGCATTGCCTTCCGTCAGGTGACGTTTCTCCCGGAGTCACCTAGTGCAG” the binding signal was 4180 fluorescence intensity (a.u.). In the case of “GCTCATCGTCATCACACGTCGCCGTCCCTTTCGGTTTCATCGGAGTCACCTAGTGCAG”, the binding signal is reported as 6930 fluorescence intensity (a.u.). In the case of “TTATGTGATTTCTCTCTCCTCAACTAATTGAATATTGTATCGGAGTCACCTAGTGCAG”, the binding signal is reported as 3300 fluorescence intensity (a.u.). “CAGCTGTTCCATGGGAAATATCTAGTGCGTGTGTGTGGATCGGAGTCACCTAGTGCAG” was tested, and the binding signal was 3530 fluorescence intensity (a.u.). For “AGAGGGCAGAATACAAGAATTACATAAGTGACGCATGATTCGGAGTCACCTAGTGCAG”, the binding signal was 3790 fluorescence intensity (a.u.). In the case of “AGAAGGTGGGGTTAGGGTCATGATGGTATGCTGAGCAGTGCGGAGTCACCTAGTGCAG”, the binding signal is reported as 3300 fluorescence intensity (a.u.). In the case of “CGAGGAGGAGCAACACGATGACGCGACAGAGCGTGTAGGTCGGAGTCACCTAGTGCAG”, the binding signal is reported as 4180 fluorescence intensity (a.u.). For “CTCCTCGCCGTCACCTCGATCGGCCCGTCAATCTGTTCTCCGGAGTCACCTAGTGCAG”, the binding signal was 3170 fluorescence intensity (a.u.). With “AAGAGACACCTCTCTTCTCTGTGTTGGCGCAGGGAAGGAGCGGAGTCACCTAGTGCAG” the binding signal was 6120 fluorescence intensity (a.u.). “ATTTCCACGTCGTCTGTTATTTTGTGCTGCTTCTCTCTTGCGGAGTCACCTAGTGCAG” was tested, and the binding signal was 5250 fluorescence intensity (a.u.). For “CGCGTCATTCCCTCCCGCTTACGTGTGCTGGGCCAAAGTACGGAGTCACCTAGTGCAG”, the binding signal was 6080 fluorescence intensity (a.u.). With “TACATGTTAAATCGATTCCAGCTGCCAGCATAATCACATTCGGAGTCACCTAGTGCAG” the binding signal was 3230 fluorescence intensity (a.u.). “TGACCTCTCCCATTAGCTCCGACGGTGACGAAGCAAGATGCGGAGTCACCTAGTGCAG” was tested, and the binding signal was 4650 fluorescence intensity (a.u.). In the case of “AAGAGATATCCTGTAATAGAGTCTGACTCTTACTCTATTTCGGAGTCACCTAGTGCAG”, the binding signal is reported as 3440 fluorescence intensity (a.u.). With “CAAATGTCGATTTGGTTGTGGACATGTCAATGCCGATCAACGGAGTCACCTAGTGCAG” the binding signal was 50200 fluorescence intensity (a.u.). “CATTGGCACTATCTCTGGTTGGCAACCACGTAATTCCCTCCGGAGTCACCTAGTGCAG” was tested, and the binding signal was 5190 fluorescence intensity (a.u.). “CACATACGTTCTCCTCTCAACCAATCATCACTATTCTCCTCGGAGTCACCTAGTGCAG” was tested, and the binding signal was 3330 fluorescence intensity (a.u.). “GATGGACGCGTGAGTCGTGACGTTGCGAGTGGTGCGACTTCGGAGTCACCTAGTGCAG” was tested, and the binding signal was 7740 fluorescence intensity (a.u.). “CACTTATCCATCCGCTGACACCTGCACAAACAAACCAGTTCGGAGTCACCTAGTGCAG” was tested, and the binding signal was 4130 fluorescence intensity (a.u.). For “ACAGGCATAGAGGCTGCTGACACACACCATCCGATCTGTCCGGAGTCACCTAGTGCAG”, the binding signal was 4990 fluorescence intensity (a.u.). “ATCTAGTTTTGGATATGACATGTCCTAGTATTATGAATCTCGGAGTCACCTAGTGCAG” was tested, and the binding signal was 3920 fluorescence intensity (a.u.). With “GGTTTGTAAACTGGCAGCGTAGACATGCTTTCCTGTGTTGCGGAGTCACCTAGTGCAG” the binding signal was 5570 fluorescence intensity (a.u.). “TCCTTCGTCTCGACTCCAGTTGGGGAGGCATTCTTTTCTTCGGAGTCACCTAGTGCAG” was tested, and the binding signal was 3470 fluorescence intensity (a.u.). For “TGTTCCTCCACGTCGCTCCGCCGCTCCGCCCGCCTTGCTTCGGAGTCACCTAGTGCAG”, the binding signal was 5090 fluorescence intensity (a.u.). “TTGGTGTAGTACTTCTCGTACACGTTGTTGCTTGTTGCCACGGAGTCACCTAGTGCAG” was tested, and the binding signal was 3260 fluorescence intensity (a.u.). “TTCCTCATCGGCAACGGTGCTCGGGCTGTGGCAGGTGACACGGAGTCACCTAGTGCAG” was tested, and the binding signal was 3820 fluorescence intensity (a.u.). In the case of “GATGATTGCCTGTGTGCCCTTGGTACTTGTGTGGAAGGTGCGGAGTCACCTAGTGCAG”, the binding signal is reported as 3500 fluorescence intensity (a.u.). With “AAGGACAAATTCAGCCCAACTTGGTAGTGGGCCTCCTTTTCGGAGTCACCTAGTGCAG” the binding signal was 18000 fluorescence intensity (a.u.). With “GATAATTCTTGGTCATCAGTGCTTCGGCACGGTCAGCCGCCGGAGTCACCTAGTGCAG” the binding signal was 3190 fluorescence intensity (a.u.). With “AGCTCACTCTCTAGCTCCTTGAGGTGCACCCTTAGTTGTTCGGAGTCACCTAGTGCAG” the binding signal was 23700 fluorescence intensity (a.u.). “GCTGGACGCGTGCCTGCGCCCCGTCGACCACGTCAAGGCGCGGAGTCACCTAGTGCAG” was tested, and the binding signal was 5050 fluorescence intensity (a.u.). “TGGGCATTTGATGAAAACATGATCACCGAAAATCATTTAGCGGAGTCACCTAGTGCAG” was tested, and the binding signal was 4320 fluorescence intensity (a.u.).

From publication PMC7819943, “Rice protein-binding microarrays: a tool to detect cis-acting elements near promoter regions in rice”
